These are yes or no findings as the source states them, for the method shown. Binding seen in cells or lysates may run through a third protein. Here binding means that the protein was enriched with, or labelled near, the bait; the list need not be complete.
Biological target: PilW3 fused to super-folder GFP (M. xanthus)
Assay: affinity purification with mass spectrometry; pull-down with GFP-Trap agarose from detergent-lysed M. xanthus cell extracts, 1 h at 4 °C; LFQ-MS, enrichment against GFP-FLAG control; two biological replicates

B1: PilB, endogenous (enzyme, UniProt Q1D098 1-566)
chain: MSGRLGELLVRENLISVQQLRKAQEEQQKNGTRIGTALVKTGAIEESKLTDFLSKQYGVPAINLKDFDVEPDIIKLVPKEVAEKHLVVPVNRAGPSLIVAMCDPSNIFAVDDLKFLTGYNIETVVASEVSIREAIERYYAEKGPSLEDIVGDVGDDIEVTKEETENIDEMAKAADDAPVVKLVNLILMDAIKKRASDIHVEPYEKDFRVRFRIDGVMYEVMRPPMKLRNAITSRLKIMASLDISERRLPQDGRIKIKMGGGKEMDFRVSVCPTLFGEKVVMRLLDKSNLQLDMTKLGFDAQPLAWFKEAIDRPYGMVLVTGPTGSGKTTTLYSALSSLNGLDTNICTAEDPVEFNFAGINQVQMHDDIGLNFAAALRSFLRQDPDIIMIGEIRDFETAEIGVKAALTGHLVLSTLHTNDAPGTVSRLLNMGIEPFLVTASLNLILAQRLARRLCPACKKPAENVDEQALIDAGVPPDKIGTFTMYEKVGCRDCNDRGYRGRVAIYEVMPFWDGLKELVINGASAAELKQEAIRLGMSSLRMSGLRKMMDGATTLEEVVGNTAPDRF
In the case of B1, the binding is reported as “binds”.
